The source of these data is paper doi:10.1101/2025.10.07.680889.

Amino acid sequences for entries named in this document (tags omitted).
UniProt Q9UKV8: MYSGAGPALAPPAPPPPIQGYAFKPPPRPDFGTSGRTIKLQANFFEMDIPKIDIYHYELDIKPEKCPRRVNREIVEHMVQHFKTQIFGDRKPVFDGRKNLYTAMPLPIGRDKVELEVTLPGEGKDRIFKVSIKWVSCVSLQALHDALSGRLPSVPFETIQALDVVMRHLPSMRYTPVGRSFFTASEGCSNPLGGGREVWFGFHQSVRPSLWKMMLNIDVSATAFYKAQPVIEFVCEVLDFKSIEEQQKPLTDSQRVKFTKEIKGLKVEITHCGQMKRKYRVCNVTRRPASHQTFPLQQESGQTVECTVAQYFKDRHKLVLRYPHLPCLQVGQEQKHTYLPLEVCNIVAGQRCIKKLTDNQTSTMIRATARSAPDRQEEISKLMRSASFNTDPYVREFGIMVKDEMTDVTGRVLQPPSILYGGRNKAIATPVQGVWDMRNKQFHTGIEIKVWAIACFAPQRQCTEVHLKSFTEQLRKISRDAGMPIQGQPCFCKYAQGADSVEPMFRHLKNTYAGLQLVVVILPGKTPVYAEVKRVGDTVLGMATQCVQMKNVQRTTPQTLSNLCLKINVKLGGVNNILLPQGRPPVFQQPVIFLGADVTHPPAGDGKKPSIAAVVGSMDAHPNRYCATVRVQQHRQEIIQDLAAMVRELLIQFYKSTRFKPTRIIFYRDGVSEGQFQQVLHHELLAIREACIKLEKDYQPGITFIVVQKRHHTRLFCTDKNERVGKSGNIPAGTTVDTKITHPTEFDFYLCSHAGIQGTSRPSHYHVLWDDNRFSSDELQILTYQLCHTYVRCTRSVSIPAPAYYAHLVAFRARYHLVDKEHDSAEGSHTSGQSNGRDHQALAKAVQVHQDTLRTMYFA
UniProt Q8NDV7: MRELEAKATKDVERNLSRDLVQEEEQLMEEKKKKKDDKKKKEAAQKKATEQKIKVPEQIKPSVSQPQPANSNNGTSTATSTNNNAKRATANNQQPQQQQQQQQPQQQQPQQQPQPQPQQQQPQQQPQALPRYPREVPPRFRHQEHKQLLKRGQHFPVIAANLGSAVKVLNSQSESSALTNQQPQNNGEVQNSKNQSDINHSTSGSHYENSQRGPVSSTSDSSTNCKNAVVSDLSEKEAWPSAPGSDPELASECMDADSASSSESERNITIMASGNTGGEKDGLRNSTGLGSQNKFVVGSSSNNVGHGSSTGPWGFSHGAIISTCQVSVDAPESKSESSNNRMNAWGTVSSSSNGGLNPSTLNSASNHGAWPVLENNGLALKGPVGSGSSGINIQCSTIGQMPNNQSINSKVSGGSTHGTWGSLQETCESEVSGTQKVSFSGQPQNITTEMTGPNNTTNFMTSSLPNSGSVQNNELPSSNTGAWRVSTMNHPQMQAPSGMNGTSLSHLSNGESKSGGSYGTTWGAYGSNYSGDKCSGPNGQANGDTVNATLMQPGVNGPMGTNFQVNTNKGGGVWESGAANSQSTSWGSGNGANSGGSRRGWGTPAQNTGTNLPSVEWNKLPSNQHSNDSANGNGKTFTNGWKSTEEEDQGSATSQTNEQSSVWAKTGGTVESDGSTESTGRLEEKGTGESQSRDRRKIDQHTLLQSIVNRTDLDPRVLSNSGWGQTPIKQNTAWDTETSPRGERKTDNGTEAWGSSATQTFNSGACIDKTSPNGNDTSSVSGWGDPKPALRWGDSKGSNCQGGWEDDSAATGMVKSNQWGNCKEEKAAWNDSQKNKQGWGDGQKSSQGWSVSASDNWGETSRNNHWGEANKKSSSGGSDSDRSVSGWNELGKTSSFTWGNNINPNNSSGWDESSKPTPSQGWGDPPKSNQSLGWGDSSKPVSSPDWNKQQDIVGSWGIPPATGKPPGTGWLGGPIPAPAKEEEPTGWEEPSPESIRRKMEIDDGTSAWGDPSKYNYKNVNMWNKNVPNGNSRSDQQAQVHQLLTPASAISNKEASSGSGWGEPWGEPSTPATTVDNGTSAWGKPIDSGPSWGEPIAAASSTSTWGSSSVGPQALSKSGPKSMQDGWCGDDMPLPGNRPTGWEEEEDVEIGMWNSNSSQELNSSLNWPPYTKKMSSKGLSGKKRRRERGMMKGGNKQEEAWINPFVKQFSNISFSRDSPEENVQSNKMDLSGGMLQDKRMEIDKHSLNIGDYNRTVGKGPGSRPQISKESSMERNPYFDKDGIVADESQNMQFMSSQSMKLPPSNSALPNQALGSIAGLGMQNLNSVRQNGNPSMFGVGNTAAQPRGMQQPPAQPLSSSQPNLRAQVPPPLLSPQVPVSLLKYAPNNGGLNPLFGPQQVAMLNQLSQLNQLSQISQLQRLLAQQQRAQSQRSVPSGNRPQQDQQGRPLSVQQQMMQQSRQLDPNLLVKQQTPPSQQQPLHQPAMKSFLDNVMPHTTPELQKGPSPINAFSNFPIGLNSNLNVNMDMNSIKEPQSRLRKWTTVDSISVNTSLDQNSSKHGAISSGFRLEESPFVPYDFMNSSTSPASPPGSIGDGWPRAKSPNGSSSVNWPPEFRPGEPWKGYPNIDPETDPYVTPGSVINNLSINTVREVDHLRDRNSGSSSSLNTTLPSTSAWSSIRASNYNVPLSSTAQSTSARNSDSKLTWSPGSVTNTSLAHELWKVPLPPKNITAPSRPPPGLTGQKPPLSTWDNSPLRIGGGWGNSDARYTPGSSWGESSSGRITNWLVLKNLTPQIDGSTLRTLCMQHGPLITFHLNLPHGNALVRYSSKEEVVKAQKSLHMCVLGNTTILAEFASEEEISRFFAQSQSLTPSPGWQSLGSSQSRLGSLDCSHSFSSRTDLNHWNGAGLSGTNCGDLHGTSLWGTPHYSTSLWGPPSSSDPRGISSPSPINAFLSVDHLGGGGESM

For test [1], the target named is Argonaute 2 (AGO2) (human (endogenous in hSAECs)) (UniProt Q9UKV8). The experiment in a line: proximity ligation.
The target is the same in test [2]. As to the kind of experiment: co-IP.

No constants are given. Whether binding was seen depends on the method and setting. Binding seen in cells or lysates may run through a third protein. Some entries that bind do so weakly or less than the wild type.

For “TNRC6A (GW182) (from UniProt Q8NDV7 1-1962)”, the binding entry in test [1] and in test [2] was “binds” throughout.
